# PubChem BioAssay AID1259405, NCATS, 2018
# Assay: 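Knock-downs that lift recombinant protein yield in hamster ovary cells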 (primary screen)
# System: Chinese hamster CHO-K1 ovary cells with stable secreted eGFP expression
# Knock-down reagent: single siRNA against mouse genes, 0.8 pmol siRNA per well (2 µl of 400 nM stock)
# Timing: 3 days
# Measured: 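Per-well intracellular GFP measured by laser scanning cytometry, plus viability from ATP luminescence, each relative to plate median of non-targeting control wells, in %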
# Direction: GFP, % of control: higher = more GFP per well, higher productivity; viability (ATP), % of control: higher = more viable cells (more ATP)
# Rule for the call: 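a knock-down is called active if GFP reaches 120% or more of non-targeting control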
# In all, the deposit lists about 50,000 reagents; shown is an unselected part. Over the whole deposit, about 4,000 (8%) are marked active. 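Mouse siRNA library applied to hamster cells; one well for each siRNA.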 Entries without a mark were called inactive. Reagents against one gene are numbered here.
gene,reagent no.,"GFP, % of control","viability (ATP), % of control"
Zfp2 (zinc finger protein 2),1,59.9,77
Zfp2 (zinc finger protein 2),2,88.7,108
Zfp2 (zinc finger protein 2),3,57.2,95.5
Erv3 (endogenous retroviral sequence 3),1,127 (active),110
Erv3 (endogenous retroviral sequence 3),2,93.4,83.4
Erv3 (endogenous retroviral sequence 3),3,74.7,45.8
St6galnac1,1,71.2,80.6
St6galnac1,2,67,89.1
St6galnac1,3,79.6,104
Slc16a14,1,87.1,92.5
Slc16a14,2,65.6,74.4
Slc16a14,3,56.1,63.6
Osbpl9 (oxysterol binding protein-like 9),1,66.6,74.1
Osbpl9 (oxysterol binding protein-like 9),2,92.9,74.9
Osbpl9 (oxysterol binding protein-like 9),3,193 (active),165
"Ms4a19 (membrane-spanning 4-domains, subfamily A, member 19)",1,82.1,77.1
"Ms4a19 (membrane-spanning 4-domains, subfamily A, member 19)",2,82.9,85.3
"Ms4a19 (membrane-spanning 4-domains, subfamily A, member 19)",3,65,73.4
Or1e1c (olfactory receptor family 1 subfamily E member 1C),1,118,70.8
Or1e1c (olfactory receptor family 1 subfamily E member 1C),2,73.6,59.4
Or1e1c (olfactory receptor family 1 subfamily E member 1C),3,58.3,111
Cypt1 (cysteine-rich perinuclear theca 1),1,115,95.9
Cypt1 (cysteine-rich perinuclear theca 1),2,46.4,31.2
Cypt1 (cysteine-rich perinuclear theca 1),3,39.7,44
"Phldb1 (pleckstrin homology like domain, family B, member 1)",1,71.7,52.4
"Phldb1 (pleckstrin homology like domain, family B, member 1)",2,104,96.1
"Phldb1 (pleckstrin homology like domain, family B, member 1)",3,93.8,133
Ufc1 (ubiquitin-fold modifier conjugating enzyme 1),1,71.2,87.2
Ufc1 (ubiquitin-fold modifier conjugating enzyme 1),2,120 (active),104
Ufc1 (ubiquitin-fold modifier conjugating enzyme 1),3,63,63.1
Smarcc2 (SWI/SNF related BAF chromatin remodeling complex subunit C2),1,28.1,75
Smarcc2 (SWI/SNF related BAF chromatin remodeling complex subunit C2),2,72.9,64.4
Smarcc2 (SWI/SNF related BAF chromatin remodeling complex subunit C2),3,45.5,53.4
"Rad23a (RAD23 homolog A, nucleotide excision repair protein)",1,64.9,83.5
"Rad23a (RAD23 homolog A, nucleotide excision repair protein)",2,93.7,87.8
1700010D01Rik (RIKEN cDNA 1700010D01 gene),1,113,100
1700010D01Rik (RIKEN cDNA 1700010D01 gene),2,58.3,77.6
1700010D01Rik (RIKEN cDNA 1700010D01 gene),3,158 (active),101
"Lig3 (ligase III, DNA, ATP-dependent)",1,77.5,81.2
"Lig3 (ligase III, DNA, ATP-dependent)",2,31.9,34.6
"Lig3 (ligase III, DNA, ATP-dependent)",3,70.8,73.4
Or8g18 (olfactory receptor family 8 subfamily G member 18),1,79.2,57.4
Or8g18 (olfactory receptor family 8 subfamily G member 18),2,29.4,42.1
Or8g18 (olfactory receptor family 8 subfamily G member 18),3,90.5,82.9
Large1 (LARGE xylosyl- and glucuronyltransferase 1),1,61,62.9
Large1 (LARGE xylosyl- and glucuronyltransferase 1),2,107,126
Large1 (LARGE xylosyl- and glucuronyltransferase 1),3,99.2,123
Slc20a1,1,48.4,70
Slc20a1,2,97.4,75
Slc20a1,3,48.5,59.5
Ip6k3 (inositol hexaphosphate kinase 3),1,61.9,61.1
Taar5 (trace amine-associated receptor 5),1,156 (active),104
Taar5 (trace amine-associated receptor 5),2,98.3,59.6
Taar5 (trace amine-associated receptor 5),3,44.4,37.5
"Nrde2 (nrde-2 necessary for RNA interference, domain containing)",1,53.4,99.8
"Nrde2 (nrde-2 necessary for RNA interference, domain containing)",2,94.4,92.3
"Nrde2 (nrde-2 necessary for RNA interference, domain containing)",3,142 (active),74.2

A stretch from the list above, as a working copy:
gene,reagent no.,"GFP, % of control","viability (ATP), % of control"
"Rad23a (RAD23 homolog A, nucleotide excision repair protein)",2,93.7,87.8
1700010D01Rik (RIKEN cDNA 1700010D01 gene),1,113,100
1700010D01Rik (RIKEN cDNA 1700010D01 gene),2,58.3,77.6
1700010D01Rik (RIKEN cDNA 1700010D01 gene),3,158 (active),101
"Lig3 (ligase III, DNA, ATP-dependent)",1,77.5,81.2
"Lig3 (ligase III, DNA, ATP-dependent)",2,31.9,34.6
"Lig3 (ligase III, DNA, ATP-dependent)",3,70.8,73.4
Or8g18 (olfactory receptor family 8 subfamily G member 18),1,79.2,57.4
Or8g18 (olfactory receptor family 8 subfamily G member 18),2,29.4,42.1
Or8g18 (olfactory receptor family 8 subfamily G member 18),3,90.5,82.9

The results go on.
gene,reagent no.,"GFP, % of control","viability (ATP), % of control"
Or7a37 (olfactory receptor family 7 subfamily A member 37),1,89.2,88
Or7a37 (olfactory receptor family 7 subfamily A member 37),2,83,92.8
Or7a37 (olfactory receptor family 7 subfamily A member 37),3,52.6,89.5
Tab1 (TGF-beta activated kinase 1/MAP3K7 binding protein 1),1,65.4,69.4
Tab1 (TGF-beta activated kinase 1/MAP3K7 binding protein 1),2,76.3,63.6
Tagln2 (transgelin 2),1,65.6,63.1
Tagln2 (transgelin 2),2,105,64.1
Tagln2 (transgelin 2),3,56.6,40.7
Gzmf (granzyme F),1,111,116
Gzmf (granzyme F),2,74,53.9
Gzmf (granzyme F),3,74.5,70.6
"Hells (helicase, lymphoid specific)",1,72.1,98.7
"Hells (helicase, lymphoid specific)",2,90.6,76.3
"Hells (helicase, lymphoid specific)",3,171 (active),106
Ephb2 (Eph receptor B2),1,25.3,32.5
Ephb2 (Eph receptor B2),2,81,99.8
Ephb2 (Eph receptor B2),3,31.6,73.4
Unc79 (unc-79 homolog),1,61.9,78.7
Unc79 (unc-79 homolog),2,57.9,72.4
Unc79 (unc-79 homolog),3,137 (active),92.1
"Tk2 (thymidine kinase 2, mitochondrial)",1,86.7,63.8
"Tk2 (thymidine kinase 2, mitochondrial)",2,58.1,57.4
"Tk2 (thymidine kinase 2, mitochondrial)",3,58.2,44.6
Nav2 (neuron navigator 2),1,54.8,43.5
Nav2 (neuron navigator 2),2,64.3,73.8
Nav2 (neuron navigator 2),3,66.1,79
"Kcnj4 (potassium inwardly-rectifying channel, subfamily J, member 4)",1,97.2,83.1
"Kcnj4 (potassium inwardly-rectifying channel, subfamily J, member 4)",2,64.1,69.3
"Kcnj4 (potassium inwardly-rectifying channel, subfamily J, member 4)",3,90.8,101
